Measurements reported in patent publication US4638003A, “1-(4-alkylthiophenyl)-2-(substituted or unsubstituted piperazine-1-yl)-1,3-propanediol, pharmaceutical compositions containing them useful as antiarrhythmic and vasodilating agents” (Zambon S.p.A., priority 1983, dated 1987).

What was measured:
anesthetized rat = assay: coronary dilating activity (coronary spasm induced by Vasopressin, T wave in E.C.G.) in anesthetized rat; format: in vivo; details: iv, 2 min, i.v. 60 seconds after Vasopressin, T wave restored in 50% of the animals within 2 minutes
Experimental: The evaluation of the coronary dilating activity has been performed with the method of O. Nieschultz, et al. (Arzneim. Forsch. 5, 680, 1955). The coronary spasm induced by Vasopressin corresponds to the flattering of T wave in the E.C.G. The coronary dilating activity of the compounds has been referred as dose effective 50 in restoring the T wave in the 50% of the animals within 2 minutes after the administration. The compounds have been administered intravenously 60 seconds after Vasopressin.

[1] = tested on: isolated rabbit aorta (vascular smooth muscle); assay: calcium antagonist activity on isolated rabbit aorta (CaCl2-induced contraction)

Structure (SMILES): C(=C\c1ccccc1)/CN1CCN(C(c2ccccc2)c2ccccc2)CC1 [Cinnarizine, reference compound]
- ED50 (anesthetized rat): 0.00086 µmol/kg
- ratio between the CaCl2 concentration producing the 50% contraction in presence or in absence of various compounds ([1]; concentration in perfused liquid 10^-5 M): 22
- ratio between the CaCl2 concentration producing the 50% contraction in presence or in absence of various compounds ([1]; concentration in perfused liquid 10^-6 M): 1
